The target in assay [1] is T1, nLuc-HAT1 (35S:nLuc-HAT1) (Arabidopsis thaliana) (UniProt P46600).
T1 sequence: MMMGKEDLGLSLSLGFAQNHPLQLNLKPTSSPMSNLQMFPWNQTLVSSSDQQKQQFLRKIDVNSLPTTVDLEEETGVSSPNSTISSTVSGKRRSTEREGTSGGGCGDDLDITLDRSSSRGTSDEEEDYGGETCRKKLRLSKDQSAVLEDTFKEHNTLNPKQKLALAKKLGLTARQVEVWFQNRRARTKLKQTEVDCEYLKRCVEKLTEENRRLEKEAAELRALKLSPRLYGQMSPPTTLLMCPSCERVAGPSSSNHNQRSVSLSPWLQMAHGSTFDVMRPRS
The experiment in a line: split reporter.

In assay [2] the target is T2, HAT1-GFP (pHAT1:HAT1-GFP) (Arabidopsis thaliana) (UniProt P46600).
T2 sequence: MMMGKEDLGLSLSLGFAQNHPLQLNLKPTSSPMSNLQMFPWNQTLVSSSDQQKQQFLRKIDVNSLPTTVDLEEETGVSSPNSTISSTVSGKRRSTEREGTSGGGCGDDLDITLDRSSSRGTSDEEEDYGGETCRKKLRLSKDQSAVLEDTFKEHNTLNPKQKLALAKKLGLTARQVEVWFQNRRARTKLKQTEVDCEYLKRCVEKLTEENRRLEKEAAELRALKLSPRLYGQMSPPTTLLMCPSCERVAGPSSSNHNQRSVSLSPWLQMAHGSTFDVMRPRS
Put plainly: co-IP.

These are yes or no findings as the source states them, for the method shown. In cells and extracts the contact can be indirect. Some binding calls cover weakened binding; strength is not graded here. Where a sequence is shown, tags or fusion partners need not be part of it.

B1: cLuc-CAMTA3 (35S:cLuc-CAMTA3) (protein, UniProt Q8GSA7 1-1032)
chain: MAEARRFSPVHELDVGQILSEARHRWLRPPEICEILQNYQRFQISTEPPTTPSSGSVFMFDRKVLRYFRKDGHNWRKKKDGKTVKEAHERLKAGSVDVLHCYYAHGQDNENFQRRSYWLLQEELSHIVFVHYLEVKGSRVSTSFNRMQRTEDAARSPQETGDALTSEHDGYASCSFNQNDHSNHSQTTDSASVNGFHSPELEDAESAYNQHGSSTAYSHQELQQPATGGNLTGFDPYYQISLTPRDSYQKELRTIPVTDSSIMVDKSKTINSPGVTNGLKNRKSIDSQTWEEILGNCGSGVEALPLQPNSEHEVLDQILESSFTMQDFASLQESMVKSQNQELNSGLTSDRTVWFQGQDMELNAISNLASNEKAPYLSTMKQHLLHGALGEEGLKKMDSFNRWMSKELGDVGVIADANESFTQSSSRTYWEEVESEDGSNGHNSRRDMDGYVMSPSLSKEQLFSINDFSPSWAYVGCEVVVFVTGKFLKTREETEIGEWSCMFGQTEVPADVISNGILQCVAPMHEAGRVPFYVTCSNRLACSEVREFEYKVAESQVFDREADDESTIDILEARFVKLLCSKSENTSPVSGNDSDLSQLSEKISLLLFENDDQLDQMLMNEISQENMKNNLLQEFLKESLHSWLLQKIAEGGKGPSVLDEGGQGVLHFAASLGYNWALEPTIIAGVSVDFRDVNGWTALHWAAFFGRERIIGSLIALGAAPGTLTDPNPDFPSGSTPSDLAYANGHKGIAGYLSEYALRAHVSLLSLNDKNAETVEMAPSPSSSSLTDSLTAVRNATQAAARIHQVFRAQSFQKKQLKEFGDKKLGMSEERALSMLAPKTHKSGRAHSDDSVQAAAIRIQNKFRGYKGRKDYLITRQRIIKIQAHVRGYQFRKNYRKIIWSVGVLEKVILRWRRKGAGLRGFKSEALVEKMQDGTEKEEDDDFFKQGRKQTEDRLQKALARVKSMVQYPEARDQYRRLLNVVNDIQESKVEKALENSEATCFDDDDDLIDIEALLEDDDTLMLPMSSSLWTS
With B1, in assay [1], the binding result is on record as “binds”.

B2: CAMTA3, endogenous (protein, UniProt Q8GSA7 1-1032)
chain: MAEARRFSPVHELDVGQILSEARHRWLRPPEICEILQNYQRFQISTEPPTTPSSGSVFMFDRKVLRYFRKDGHNWRKKKDGKTVKEAHERLKAGSVDVLHCYYAHGQDNENFQRRSYWLLQEELSHIVFVHYLEVKGSRVSTSFNRMQRTEDAARSPQETGDALTSEHDGYASCSFNQNDHSNHSQTTDSASVNGFHSPELEDAESAYNQHGSSTAYSHQELQQPATGGNLTGFDPYYQISLTPRDSYQKELRTIPVTDSSIMVDKSKTINSPGVTNGLKNRKSIDSQTWEEILGNCGSGVEALPLQPNSEHEVLDQILESSFTMQDFASLQESMVKSQNQELNSGLTSDRTVWFQGQDMELNAISNLASNEKAPYLSTMKQHLLHGALGEEGLKKMDSFNRWMSKELGDVGVIADANESFTQSSSRTYWEEVESEDGSNGHNSRRDMDGYVMSPSLSKEQLFSINDFSPSWAYVGCEVVVFVTGKFLKTREETEIGEWSCMFGQTEVPADVISNGILQCVAPMHEAGRVPFYVTCSNRLACSEVREFEYKVAESQVFDREADDESTIDILEARFVKLLCSKSENTSPVSGNDSDLSQLSEKISLLLFENDDQLDQMLMNEISQENMKNNLLQEFLKESLHSWLLQKIAEGGKGPSVLDEGGQGVLHFAASLGYNWALEPTIIAGVSVDFRDVNGWTALHWAAFFGRERIIGSLIALGAAPGTLTDPNPDFPSGSTPSDLAYANGHKGIAGYLSEYALRAHVSLLSLNDKNAETVEMAPSPSSSSLTDSLTAVRNATQAAARIHQVFRAQSFQKKQLKEFGDKKLGMSEERALSMLAPKTHKSGRAHSDDSVQAAAIRIQNKFRGYKGRKDYLITRQRIIKIQAHVRGYQFRKNYRKIIWSVGVLEKVILRWRRKGAGLRGFKSEALVEKMQDGTEKEEDDDFFKQGRKQTEDRLQKALARVKSMVQYPEARDQYRRLLNVVNDIQESKVEKALENSEATCFDDDDDLIDIEALLEDDDTLMLPMSSSLWTS
Turning to B2, in assay [2], the binding entry is given as “binds”.

The values above are taken from publication doi:10.1101/2024.08.29.610327.
